The nature of this assay: qHTS Assay for Modulators of Lamin A Splicing. Particulars: HeLa LMNA splicing GFP/RFP minigene ratio, 48 h. The method in brief: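 S3 HeLa cells stably expressing lamin A-EGFP splicing minigene plus DsRed2, 600 cells/well, 48 h compound exposure at 37C. Laser-scanning cytometry; analysed as GFP (500-530 nm)/RFP (575-640 nm) total intensity ratio; 0.5% DMSO vehicle.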
In general terms: qHTS replaces the single test concentration by a dilution series.

The mark [1] stands for this setting: measured here: RFP viability control channel.
Where [2] appears, read: measured here: GFP splicing reporter channel.

The structures appear in SMILES notation. The list shows a part of the results. Shown are side measurements of this screen, not its main read-out; they come without a call. Compounds called inactive in the main read-out are mostly missing here. Words in brackets tell the shape of the fitted curve; partial curves, single points and poor fits give uncertain potencies.

37 compounds from PubChem BioAssay AID1487 (National Center for Advancing Translational Sciences (NCATS), 2009) can be followed below.

For orientation: AC50 means the midpoint of the concentration-response curve, whichever way the signal moves. Turning to `Cc1ccccc1S(=O)(=O)NC1OC(=O)C(Cl)=C1Cl` (centres undefined), under setting [1], the AC50 is 4.47 µM [falling, full curve].
On to `COc1ccc(CCNCC(O)Cn2c3ccccc3c3ccccc32)cc1OC` (centres undefined), for which the AC50 by setting is: under setting [2], 2.82 µM [falling, single point]; under setting [1], 3.98 µM [falling, single point].
Consider `Cc1nn(CC(=O)c2ccccc2)c(=O)c2nn(-c3ccccc3F)c(C)c12`, for which the AC50 under setting [2] was 8.91 µM [rising, partial curve, poor fit].
Regarding `c1ccc(CC2CCN(C(c3cccs3)c3nnnn3C3CCCC3)CC2)cc1` (centres undefined), the AC50 under setting [2] is 11.2 µM [rising, single point] and the AC50 under setting [1] is 15.8 µM [rising, single point].
Turning to `CN(C)C(C)(C)C#CCC(c1ccccc1)c1ccccc1`, the AC50 under setting [1] was 15.8 µM [rising, single point].
Take `COc1ccc(N2CCN(CC(=O)Nc3sccc3C#N)CC2)cc1`: under setting [1], the AC50 is 35.5 µM [rising, single point].
Regarding `CCn1c2ccccc2c2cc(NC(=O)CSc3nnc(-c4ccc(OC)cc4)n3N)ccc21`, the AC50 is, setting by setting: under setting [2], 28.2 µM [falling, single point]; under setting [1], 35.5 µM [falling, single point].
In the case of `O=C1CC2c3ccccc3C1C1C(=O)N(CCO)C(=O)C21` (centres undefined), the AC50 is 4.47 µM [falling, single point] under setting [2] and 6.31 µM [falling, single point] under setting [1].
With `CN(CC(=O)Nc1ccc(S(=O)(=O)N2CCCC2)cc1)Cc1ccc(Cl)cc1`, the AC50 is 14.1 µM [rising, single point] under setting [2] and 12.6 µM [rising, single point] under setting [1].
Take `CCOC(=O)c1sc(NC(=O)c2cccc(S(=O)(=O)N3c4ccccc4CC3C)c2)cc1C` (centres undefined): the AC50 under setting [1] is 3.55 µM [rising, single point].
Same read-out and setting: to `O=C(c1ccc(F)cc1)C1CCN(Cc2cn[nH]c2-c2ccccc2)CC1` belongs 25.1 µM [falling, single point]; to `COC(=O)C1=C(C)N(Cc2ccccc2)C(=O)N[C@H]1c1cccc(F)c1`, 0.282 µM [falling, partial curve]; to `COc1ccc(-c2oc3ncn(CCN4CCOCC4)c(=N)c3c2-c2ccc(OC)cc2)cc1`, 14.1 µM [rising, partial curve].
Turning to `Cc1cccc(NC(=O)Cn2cc(C(=O)c3ccco3)c3ccccc32)c1`, the AC50 was 15.8 µM [rising, single point] under setting [2] and 20 µM [rising, partial curve] under setting [1].
With `CN(C)/C=C(\C#N)C(=O)Nc1ccccc1`, under setting [2], the AC50 was 5.62 µM [rising, single point].
Turning to `Cc1cccc(N2CCN(C(=O)N3CCCCC3)CC2)c1C`, the AC50 reads like this: under setting [2], 5.62 µM [falling, single point]; under setting [1], 5.62 µM [falling, partial curve, poor fit].
Turning to `Cc1ccc(C(=O)CSc2nnc(-c3ccco3)n2C)cc1`, the AC50 under setting [2] was 0.0631 µM [rising, full curve].
As for `CCOC(=O)CCNC(=O)N1CCCC(C(=O)c2ccccc2SC)C1` (centres undefined), the AC50 under setting [1] is 1.12 µM [falling, full curve, poor fit].
Regarding `COCc1nn2c(N)c(C#N)cnc2c1-c1ccccc1`, the AC50 under setting [1] is 15.8 µM [rising, partial curve].
As for `NC(=O)CC[C@@H]1NC(=O)[C@H](CO)NC(=O)c2cc([N+](=O)[O-])cc(I)c2NCC[C@@H](C(N)=O)NC1=O`, the AC50 under setting [1] was 2 µM [rising, partial curve, poor fit].
`COc1ccccc1N/C(N)=N/c1nc(CSc2ccc(C)cc2)cc(=O)[nH]1`: the AC50 was 2.51 µM [rising, full curve] under setting [2] and 10 µM [rising, partial curve] under setting [1].
With `O=[N+]([O-])c1ccc(N=Nc2ccc(O)cc2O)cc1`, the AC50 by setting is: under setting [2], 0.126 µM [rising, full curve, poor fit]; under setting [1], 0.447 µM [rising, full curve].
`CC(=O)N1CCn2c3ccc(C)cc3c3cccc1c32`: the AC50 under setting [1] was 35.5 µM [falling, single point].
For `O=S(=O)(Nc1cnc2ccccc2c1)N1CCCCCC1`, the AC50 runs as follows: under setting [2], 1.78 µM [rising, full curve, poor fit]; under setting [1], 10 µM [rising, partial curve].
Turning to `CCOC(=O)c1cc(C(=O)c2cc(Br)ccc2O)coc1=N`, the AC50 under setting [1] was 0.355 µM [falling, full curve, poor fit].
On to `N#Cc1ccc(OCc2nnc(SCC(=O)N3CCCc4ccccc43)n2-c2ccccc2)cc1`, for which the AC50 under setting [1] was 35.5 µM [rising, partial curve, poor fit].
As for `O=C(NCc1ccccc1)Nc1cccn(Cc2ccc(F)cc2)c1=O`, the AC50 under setting [1] was 10 µM [rising, partial curve, poor fit].
`CCN(Cc1ccccc1)C(=O)c1ccc(SC)cc1OC`: the AC50 under setting [2] is 0.0224 µM [rising, full curve, poor fit].
On to `N/C(=N\OC(=O)CCCOc1ccc(Cl)cc1Cl)c1ccccn1`, for which, under setting [1], the AC50 was 2.82 µM [falling, partial curve, poor fit].
As for `CCC(Cc1ccccc1)NC(=O)CN1C(=O)CSc2ncccc21` (centres undefined), under setting [1], the AC50 is 12.6 µM [rising, partial curve].
In the case of `O=C(CN1C(=O)NC2(CCCCC2)C1=O)Nc1ccc2c(c1)CCC2`, the AC50 under setting [1] is 8.91 µM [rising, partial curve].
Regarding `Cc1cc(Cl)cc2c1NC(=O)[C@]21[C@@H]2C(=O)N(Cc3ccccc3)C(=O)[C@@H]2[C@@H]2CCCN21`, the AC50 under setting [2] is 3.55 µM [rising, single point].
Turning to `OCc1nc2ccccc2n1CCCOc1ccc(Br)cc1`, the AC50 reads like this: under setting [2], 12.6 µM [rising, partial curve]; under setting [1], 15.8 µM [rising, single point].
In the case of `O=C(CNC(=S)NC(=O)c1ccc(Br)o1)c1ccccc1`, the AC50 under setting [1] is 7.08 µM [rising, partial curve].
Take `NC(=O)c1ccc(C(F)(F)F)n(Cc2c(Cl)cccc2Cl)c1=O`: the AC50 under setting [1] was 6.31 µM [falling, single point].
Take `Cn1c(=O)c2c(nc(N3CCN(Cc4ccccc4)CC3)n2CCCc2ccccc2)n(C)c1=O`: the AC50 under setting [1] was 35.5 µM [rising, single point].
In the case of `CCOc1ccc(NC(=O)C2CCCCN2S(=O)(=O)c2ccccc2)cc1` (centres undefined), the AC50 is, setting by setting: under setting [2], 12.6 µM [rising, partial curve, poor fit]; under setting [1], 31.6 µM [rising, single point].
